# Measurements reported in patent publication US11814393B2, “Substituted guanidine compounds” (UBE CORPORATION, priority 2016, dated 2023).
# Some entries share one result that the patent states for a list of compounds.
# What was measured:
# [1] = test system: human recombinant CYP enzyme 3A4, 2D6, 2C9, 2C19, 1A2 or 2C8; experiment: Cytochrome P450 (CYP) metabolism test; type: in vitro ADME; details: with all kinds of CYP (3A4, 2D6, 2C9, 2C19, 1A2, 2C8); compound 5 μmon; 37° C., pH 7.4
# [2] = Rat pharmacokinetic (PK) study (concentration of compound in plasma after oral administration); type: in vivo, SD rats; details: dose 3 mg/kg
# Experimental: Rat Pharmacokinetic (PK) Study (Concentration of Compound in Plasma after Oral Administration)
# Seven to eight week old SD rats (weighing 180 to 250 g) were orally administered with a suspension of the compound in 0.5 W/V % methylcellulose 400 solution. Under anesthesia, the blood was collected from the jugular vein in EDTA tubes at 0.25, 0.5, 1, 2, 4, 6, 8 and 24 hours after the administration of the compound. The blood was centrifuged at 4° C. and 6000 g for 3 minutes to give plasma. Acetonitrile was added to the plasma, and the mixture was stirred with a shaker at 750 rpm for 3 minutes and was deproteinized by centrifugation at 3700 rpm for 2 minutes. The obtained sample was analyzed by LC/MS under the following conditions.
# The concentration of the compound in the plasma at each blood sampling time was determined by an internal standard method, and AUC all (Area Under Curve) was calculated by a trapezoidal method.
# The following LC and MS systems were used for measurement.
# LC: CBM 30 series manufactured by Shimadzu Corporation
# Column: Phenomenex Kinetex C18 (50×2.1 mm, 2.6 μm)
# Column temperature: 40° C.
# Mobile phase A: 0.1% aqueous formic acid solution, mobile phase B: 0.1% formic acid, 50% acetonitrile/methanol mixture
# MS: 3200 manufactured by SCIEX
Compound,elimination rate [1],AUC (AUC all) [2]
"N=C(N)NC(=O)OCc1cccc(-c2cnc(N3CC(O)C3)c(F)c2)c1F [Example 8, 2-Fluoro-3-[5-fluoro-6-(3-hydroxyazetidin-1-yl)pyridin-3-yl]benzyl carbamimidoylcarbamate]",not more than 0.030 nmol/min/200 pmol-CYP,≥ 1000 ngh/mL
"CC1(O)CN(c2ncc(-c3cccc(COC(=O)NC(=N)N)c3F)cc2F)C1 [Example 15, 2-Fluoro-3-[5-fluoro-6-(3-hydroxy-3-methylazetidin-1-yl)pyridin-3-yl]benzyl carbamimidoylcarbamate]",not more than 0.030 nmol/min/200 pmol-CYP,≥ 1000 ngh/mL
